# Values from PubChem BioAssay AID1224830 (NIAID, 2016)
# Aim: 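Host factors that control LPS-induced TNF expression in human macrophages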 (primary screen)
# System: human THP-1 monocytic leukaemia cells, TNF dual-luciferase reporter clone, PMA-differentiated to macrophage-like cells
# Knock-down reagent: siRNA pool against human genes, 50 nM
# Time to read-out: LPS for 4 h, given about 3 days after siRNA transfection
# Conditions: bacterial LPS (TLR4 ligand), 10 ng/ml
# Detection: 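Ratio of firefly to renilla light, scaled to the plate median and expressed as a robust z-score per replicate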
# Reading the numbers: TNF reporter robust z-score: higher = stronger TNF reporter response to LPS
# Hit rule: 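Each well counts as active if its z-score is over 2.8 or under -1.5; controls are left without a call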
# The deposit covers about 18,000 reagents; below is an unselected part. In the full data, about 2,900 (16%) were called active. 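Calls are made per well; low scores hint the gene aids the LPS response, high scores that it dampens it.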 The numbers tell different reagents against one gene apart. Repeated entries: four replicate wells of each siRNA pool. Reagent sequences are not shown.
gene symbol,reagent,TNF reporter robust z-score,call
SULT1A3 (GeneID 6818),1,-1.09,inactive
SULT1A3 (GeneID 6818),1,-0.66,inactive
SULT1A3 (GeneID 6818),1,-1.25,inactive
SULT1A3 (GeneID 6818),1,-0.52,inactive
SLC7A13 (GeneID 157724),1,-0.25,inactive
SLC7A13 (GeneID 157724),1,0.01,inactive
SLC7A13 (GeneID 157724),1,-0.3,inactive
SLC7A13 (GeneID 157724),1,-0.4,inactive
MBIP (GeneID 51562),1,-0.98,inactive
MBIP (GeneID 51562),1,-0.2,inactive
MBIP (GeneID 51562),1,-0.67,inactive
MBIP (GeneID 51562),1,-0.28,inactive
CLEC10A (GeneID 10462),1,-0.49,inactive
CLEC10A (GeneID 10462),1,-0.88,inactive
CLEC10A (GeneID 10462),1,-0.71,inactive
CLEC10A (GeneID 10462),1,-0.12,inactive
CDKL1 (GeneID 8814),1,-1.23,inactive
CDKL1 (GeneID 8814),1,-1.56,active
CDKL1 (GeneID 8814),1,-1.11,inactive
CDKL1 (GeneID 8814),1,-0.88,inactive
ZPBP2 (GeneID 124626),1,-1.12,inactive
ZPBP2 (GeneID 124626),1,-1.19,inactive
ZPBP2 (GeneID 124626),1,0.96,inactive
ZPBP2 (GeneID 124626),1,-0.02,inactive
CMTM5 (GeneID 116173),1,-0.99,inactive
CMTM5 (GeneID 116173),1,-0.7,inactive
CMTM5 (GeneID 116173),1,-0.58,inactive
CMTM5 (GeneID 116173),1,-0.6,inactive
DLL1 (GeneID 28514),1,0.09,inactive
DLL1 (GeneID 28514),1,-0.65,inactive
DLL1 (GeneID 28514),1,-0.91,inactive
DLL1 (GeneID 28514),1,-0.47,inactive
H3C3 (GeneID 8352),1,0.67,inactive
H3C3 (GeneID 8352),1,0.63,inactive
H3C3 (GeneID 8352),1,0.39,inactive
H3C3 (GeneID 8352),1,0.58,inactive
KCNG4 (GeneID 93107),1,1.82,inactive
KCNG4 (GeneID 93107),1,0.86,inactive
KCNG4 (GeneID 93107),1,0.89,inactive
KCNG4 (GeneID 93107),1,1.73,inactive
PTPN20 (GeneID 26095),1,-0.48,inactive
PTPN20 (GeneID 26095),1,0.93,inactive
PTPN20 (GeneID 26095),1,3.01,active
PTPN20 (GeneID 26095),1,-0.62,inactive
PTPN20 (GeneID 26095),2,0.1,inactive
PTPN20 (GeneID 26095),2,0.25,inactive
PTPN20 (GeneID 26095),2,-1.12,inactive
PTPN20 (GeneID 26095),2,-0.1,inactive
RGR (GeneID 5995),1,-0.09,inactive
RGR (GeneID 5995),1,0.02,inactive
RGR (GeneID 5995),1,-0.08,inactive
RGR (GeneID 5995),1,2.32,inactive

Hits (from the list above):
gene symbol,reagent,TNF reporter robust z-score,call
CDKL1 (GeneID 8814),1,-1.56,active
PTPN20 (GeneID 26095),1,3.01,active

Continued.
gene symbol,reagent,TNF reporter robust z-score,call
IL17REL (GeneID 400935),1,1.13,inactive
IL17REL (GeneID 400935),1,1.03,inactive
IL17REL (GeneID 400935),1,1.9,inactive
IL17REL (GeneID 400935),1,1.31,inactive
HTATSF1 (GeneID 27336),1,-1.07,inactive
HTATSF1 (GeneID 27336),1,-0.36,inactive
HTATSF1 (GeneID 27336),1,-0.29,inactive
HTATSF1 (GeneID 27336),1,-0.4,inactive
CXCL2 (GeneID 2920),1,-1.5,inactive
CXCL2 (GeneID 2920),1,-0.85,inactive
CXCL2 (GeneID 2920),1,-0.51,inactive
CXCL2 (GeneID 2920),1,-0.57,inactive
DACT2 (GeneID 168002),1,-0.08,inactive
DACT2 (GeneID 168002),1,-1.19,inactive
DACT2 (GeneID 168002),1,-1.2,inactive
DACT2 (GeneID 168002),1,-0.72,inactive
VWA2 (GeneID 340706),1,-0.93,inactive
VWA2 (GeneID 340706),1,-0.4,inactive
VWA2 (GeneID 340706),1,-0.54,inactive
SLC44A4 (GeneID 80736),1,-0.17,inactive
SLC44A4 (GeneID 80736),1,0.02,inactive
SLC44A4 (GeneID 80736),1,-0.22,inactive
SLC44A4 (GeneID 80736),1,-0.68,inactive
USP17L9P (GeneID 391627),1,-1.66,active
USP17L9P (GeneID 391627),1,-1.11,inactive
USP17L9P (GeneID 391627),1,-1.3,inactive
USP17L9P (GeneID 391627),1,-1.58,active
PRSS22 (GeneID 64063),1,-0.28,inactive
PRSS22 (GeneID 64063),1,-0.26,inactive
PRSS22 (GeneID 64063),1,-1.02,inactive
PRSS22 (GeneID 64063),1,3.98,active
DEFB106A (GeneID 245909),1,0.15,inactive
DEFB106A (GeneID 245909),1,-0.6,inactive
DEFB106A (GeneID 245909),1,-0.33,inactive
DEFB106A (GeneID 245909),1,0.94,inactive
INIP (GeneID 58493),1,3.65,active
INIP (GeneID 58493),1,3.74,active
INIP (GeneID 58493),1,3.48,active
INIP (GeneID 58493),1,1.8,inactive
ZNF628 (GeneID 89887),1,2.71,inactive
ZNF628 (GeneID 89887),1,2.44,inactive
ZNF628 (GeneID 89887),1,1.36,inactive
ZNF628 (GeneID 89887),1,1.37,inactive
POFUT2 (GeneID 23275),1,-0.88,inactive
POFUT2 (GeneID 23275),1,0.34,inactive
POFUT2 (GeneID 23275),1,0.35,inactive
POFUT2 (GeneID 23275),1,-0.03,inactive
SORBS2 (GeneID 8470),1,0.38,inactive
SORBS2 (GeneID 8470),1,0.27,inactive
SORBS2 (GeneID 8470),1,0.78,inactive
SORBS2 (GeneID 8470),1,0.79,inactive
RNASE1 (GeneID 6035),1,-1.33,inactive
RNASE1 (GeneID 6035),1,-1.31,inactive
RNASE1 (GeneID 6035),1,-1.42,inactive
RNASE1 (GeneID 6035),1,-0.8,inactive
LPAL2 (GeneID 80350),1,0.88,inactive
LPAL2 (GeneID 80350),1,1.66,inactive
LPAL2 (GeneID 80350),1,2.7,inactive
LPAL2 (GeneID 80350),1,0.16,inactive
